These are raw signals, not scaled to a control.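 The top concentration was set near the MIC for antimicrobials, at 500 µM for most other compounds, and up to 1 mM for known inducer-like compounds. Deletion strains started from a tenfold smaller inoculum, and wells growing below 10% of the overall median were treated as non-growing.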
System: Escherichia coli BW25113
Assay: growth (OD600 area under curve, 8 h) (OD600 x h); higher = more growth
Description: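 E. coli BW25113 reporter strains (wild type, ΔmarA, ΔsoxS, Δrob, each carrying one of 8 lux reporter plasmids) were grown in 40 µl LB in 384-well plates at 37°C, 800 rpm, with each compound at 4 two-fold concentrations, in biological duplicates. Growth is the baseline-corrected OD600 area under the curve over 8 h (0-8 h WT, 1-9 h deletion strains).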

Cn1c(=O)[nH]c2[nH]c(=O)[nH]c2c1=O [1-Methyluric acid]
growth
Details | reporter plasmid: EVC | reporter plasmid: acrABp | reporter plasmid: marRABp | reporter plasmid: micFp | reporter plasmid: ompFp | reporter plasmid: robp | reporter plasmid: soxSp | reporter plasmid: tolCp
11.4 µg/ml, genetic background: wild type | 2.34 | 3 | 3 | 2.98 | 2.746 | 2.83 | 2.65 | 2.78
11.4 µg/ml, genetic background: ΔmarA | 2.76 | 3.78 | 3.3 | 2.83 | 3.08 | 3.01 | 2.32 | 2.63
11.4 µg/ml, genetic background: Δrob | 2.39 | 3.09 | 3.1 | 2.74 | 2.14 | 2.52 | 2.43 | 2.47
11.4 µg/ml, genetic background: ΔsoxS | 2.45 | 2.68 | 3.12 | 2.41 | 2.55 | 2.76 | 2.68 | 2.54
22.8 µg/ml, genetic background: wild type | 2.28 | 2.99 | 2.885 | 2.87 | 2.67 | 2.7739 | 2.55 | 2.65
22.8 µg/ml, genetic background: ΔmarA | 2.73 | 3.54 | 3.24 | 2.75 | 2.93 | 3.04 | 2.26 | 2.62
22.8 µg/ml, genetic background: Δrob | 2.3 | 3.14 | 3.34 | 2.761 | 2.28 | 2.63 | 2.45 | 2.36
22.8 µg/ml, genetic background: ΔsoxS | 2.3 | 2.79 | 3.09 | 2.08 | 2.27 | 2.97 | 2.47 | 2.42
45.5 µg/ml, genetic background: wild type | 2.362 | 3.19 | 3.08 | 2.67 | 2.94 | 2.9 | 2.47 | 2.5
45.5 µg/ml, genetic background: ΔmarA | 3.45 | 4.51 | 4.08 | 2.768 | 3.58 | 4.26 | 2.67 | 2.98
45.5 µg/ml, genetic background: Δrob | 2.15 | 3.37 | 3.41 | 2.72 | 2.699 | 2.85 | 2.27 | 2.42
45.5 µg/ml, genetic background: ΔsoxS | 2.29 | 3.02 | 3.28 | 1.98 | 2.66 | 3.31 | 2.68 | 2.22
91.1 µg/ml, genetic background: wild type | 2.48 | 3.19 | 3.13 | 2.69 | 2.91 | 2.97 | 2.51 | 2.51
91.1 µg/ml, genetic background: ΔmarA | 3.19 | 4.26 | 3.46 | 2.65 | 3.49 | 3.94 | 2.46 | 2.73
91.1 µg/ml, genetic background: Δrob | 2.29 | 3.27 | 3.65 | 2.68 | 2.65 | 2.7 | 2.32 | 2.43
91.1 µg/ml, genetic background: ΔsoxS | 2.37 | 2.85 | 3.26 | 1.87 | 2.67 | 3.15 | 2.61 | 2.21

NCC[C@H](O)C(=O)N[C@@H]1C[C@H](N)[C@@H](O[C@H]2O[C@H](CN)[C@@H](O)[C@H](O)[C@H]2O)[C@H](O)[C@H]1O[C@H]1O[C@H](CO)[C@@H](O)[C@H](N)[C@H]1O [Amikacin]
growth
Details | reporter plasmid: EVC | reporter plasmid: acrABp | reporter plasmid: marRABp | reporter plasmid: micFp | reporter plasmid: ompFp | reporter plasmid: robp | reporter plasmid: soxSp | reporter plasmid: tolCp
0.07 µg/ml, genetic background: wild type | 2.69 | 3.3 | 3.365 | 2.81 | 3.09 | 3.33 | 2.64 | 2.772
0.07 µg/ml, genetic background: ΔmarA | 2.89 | 4.08 | 3.79 | 3.07 | 3.64 | 3.95 | 2.95 | 2.89
0.07 µg/ml, genetic background: Δrob | 2.71 | 3.18 | 3.5 | 2.66 | 2.71 | 2.89 | 2.31 | 2.76
0.07 µg/ml, genetic background: ΔsoxS | 2.86 | 2.98 | 3.17 | 2.61 | 3.11 | 3.28 | 3.1 | 2.67
0.15 µg/ml, genetic background: wild type | 2.699 | 3.32 | 3.33 | 2.63 | 2.992 | 3.31 | 2.66 | 2.79
0.15 µg/ml, genetic background: ΔmarA | 2.97 | 4.09 | 3.7 | 3.09 | 3.47 | 3.72 | 2.56 | 2.83
0.15 µg/ml, genetic background: Δrob | 2.75 | 2.87 | 3.19 | 2.59 | 2.54 | 2.68 | 2.4 | 2.53
0.15 µg/ml, genetic background: ΔsoxS | 2.89 | 2.83 | 3.07 | 2.48 | 3.08 | 3.31 | 3.06 | 2.601
0.29 µg/ml, genetic background: wild type | 2.28 | 2.71 | 3.18 | 1.82 | 2.5 | 2.93 | 2.19 | 2.35
0.29 µg/ml, genetic background: ΔmarA | 2.27 | 3.87 | 3.32 | 2.38 | 3.03 | 3.74 | 1.86 | 1.91
0.29 µg/ml, genetic background: Δrob | 2.4 | 2.82 | 3.12 | 2.11 | 2.37 | 2.36 | 1.57 | 2.01
0.29 µg/ml, genetic background: ΔsoxS | 2.56 | 2.73 | 3.06 | 2.16 | 2.68 | 3.22 | 2.56 | 2.19
0.59 µg/ml, genetic background: wild type | 0.271 | 0.0295 | -0.0015 | -0.00258 | -0.000494 | 0.0163 | -0.0217 | 0.491
0.59 µg/ml, genetic background: ΔmarA | 0.265 | -0.0187 | 0.0198 | 0.281 | 0.025 | 0.735 | -0.033 | 0.222
0.59 µg/ml, genetic background: Δrob | 0.377 | 0.0115 | 0.027 | 0.0306 | 0.00638 | -0.0195 | -0.00888 | 0.195
0.59 µg/ml, genetic background: ΔsoxS | 0.389 | 0.0207 | 0.0277 | 0.0578 | -0.022 | 0.0275 | 0.00942 | 0.397

From the supplement of paper PMC12282887
